# Results reported in the supplement of paper PMC10727501.
# The list shows a part of the results. This data set is noisy: repeats of one test often differ as much as different tests do.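 Free-swimming zebrafish larvae were scored for O-bend response probability to dark flashes (naive: first five; training: remaining flashes of four 60-flash blocks; test: later 60-flash block) and for turning toward alternating leftward/rightward LED motion (OMR). Six treated larvae were compared with sixty 0.1% DMSO controls; |SSMD|≥2 defined a hit.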
# Assays:
# Settings in all cases: 10 µM; pre-incubation: 30-90 min
# [1] = tested on: Danio rerio larvae (5 dpf, TLF); test: OMR-Perf (SSMD vs DMSO vehicle); higher = higher than vehicle (e.g. higher dark-flash O-bend response probability, or better optomotor performance)
# [2] = tested on: Danio rerio larvae (5 dpf, TLF); test: Prob-Test (SSMD vs DMSO vehicle); higher = higher than vehicle (e.g. higher dark-flash O-bend response probability, or better optomotor performance)
# [3] = tested on: Danio rerio larvae (5 dpf, TLF); test: Prob-Naive (SSMD vs DMSO vehicle); higher = higher than vehicle (e.g. higher dark-flash O-bend response probability, or better optomotor performance)
# [4] = tested on: Danio rerio larvae (5 dpf, TLF); test: Prob-Train (SSMD vs DMSO vehicle); higher = higher than vehicle (e.g. higher dark-flash O-bend response probability, or better optomotor performance)
Structure (SMILES),OMR-Perf [1],Prob-Test [2],Prob-Naive [3],Prob-Train [4]
CCCN1CCCC[C@H]1C(=O)Nc1c(C)cccc1C.Cl [Ropivacaine HCl],-0.00365,0.629,-0.186,0.278
O=C1CCc2ccc(OCCCCN3CCN(c4cccc(Cl)c4Cl)CC3)cc2N1 [Aripiprazole],-0.24,0.423,0.273,0.298
CN1CCN(c2nc(C3=C(c4c[nH]c5ccccc45)C(=O)NC3=O)c3ccccc3n2)CC1 [Sotrastaurin],-0.284,0.838,-0.0896,0.508
"C[C@@H](CN1CC(=O)NC(=O)C1)N1CC(=O)NC(=O)C1.Cl [Dexrazoxane HCl (ICRF-187, ADR-529)]",-0.075,-0.322,-0.269,-0.42
Oc1cc(O)cc(/C=C/c2ccc(O)c(O)c2)c1 [Piceatannol],-0.379,-0.0634,-0.343,-0.124
CCC(CC)[C@H](NC(C)=O)[C@@H]1[C@H](O)[C@@H](C(=O)O)C[C@H]1NC(=N)N.O.O.O [Peramivir Trihydrate],-0.183,0.262,-0.142,0.509
CC(Oc1c(Cl)cccc1Cl)C1=NCCN1.Cl (configuration not stated) [Lofexidine HCl],0.269,-0.419,0.298,0.229
Cl.O=C1c2cccc3c2[C@H](CCC3)CN1[C@@H]1CN2CCC1CC2 [Palonosetron HCl],0.254,-0.678,0.271,0.261
O=C(CCc1ccc(O)cc1)c1c(O)cc(O)cc1O[C@@H]1O[C@H](CO)[C@@H](O)[C@H](O)[C@@H]1O [Phlorizin],-0.284,-0.14,0.516,-0.142
NC(CO)(CO)CO.O=C(c1ccccc1)c1ccc2n1CCC2C(=O)O (configuration not stated) [Ketorolac],0.0685,0.172,0.312,0.432
C[C@H](C(=O)O)c1ccc(-c2ccccc2)c(F)c1 [Flurbiprofen],-0.326,-1.07,-0.633,-0.723
COc1ccccc1N1CCN(CC(O)COc2cccc3ccccc23)CC1 (configuration not stated) [Naftopidil],-0.804,-0.753,-0.296,-0.577
Nc1nc2c(ncn2COC(CO)CO)c(=O)[nH]1 [Ganciclovir],-0.917,0.0499,-0.341,0.0654
CC(C)(C)Cn1c(N)nc2ccc(-c3[nH]c(C(C)(C)C)nc3-c3ccc(F)cc3)nc21.CS(=O)(=O)O.CS(=O)(=O)O,-0.0317,-0.206,0.313,-0.0723
CC(C)N(CCCNC(=O)Nc1ccc(C(C)(C)C)cc1)C[C@H]1O[C@@H](n2ccc3c(N)ncnc32)[C@H](O)[C@@H]1O.Cl,0.372,-0.139,0.146,-0.385
CCCCOc1ccc(C(=O)CCN2CCCCC2)cc1.Cl [Dyclonine HCl],0.405,-0.0329,-0.286,0.663
Clc1ccc2c(c1)CCc1cccnc1C2=C1CCNCC1 [Desloratadine],-0.303,-0.153,0.6,0.339
C[C@](N)(Cc1ccc(O)c(O)c1)C(=O)O [Methyldopa (Aldomet)],-0.291,-0.538,0.448,-0.347
Cc1cc2c(cc1CC(=O)c1sccc1S(=O)(=O)[N-]c1onc(C)c1Cl)OCO2.[Na+] [Sitaxentan sodium],-0.511,-0.11,0.0516,-0.132
C=CC(=O)Nc1cc2c(Nc3ccc(F)c(Cl)c3)ncnc2cc1OCCCN1CCOCC1 [Canertinib (CI-1033)],-0.58,-1.14,-0.115,-0.837
COc1cc2ncnc(Nc3ccc(F)c(Cl)c3)c2cc1OCCCN1CCOCC1 [Gefitinib (ZD1839)],-0.111,0.0125,-0.929,-0.948
Cc1ccc(C(=O)N(CCCN)[C@@H](c2oc3cc(Cl)ccc3c(=O)c2Cc2ccccc2)C(C)C)cc1.Cl,-0.0875,0.376,0.459,-0.188
CCOC(=O)N1CCC(=C2c3ccc(Cl)cc3CCc3cccnc32)CC1 [Loratadine],-0.746,-1.28,-0.302,-1.63
CCNC(=O)C1=C(c2ccc(OC)cc2)C(=C2C=C(Cl)C(O)=CC2=O)NN1,-0.294,-0.00285,0.489,0.198
Cn1cc(CNCC2CCN(c3ncc(C(=O)NO)cn3)CC2)c2ccccc21,-0.268,0.195,0.233,0.0894
Nc1nc(OCc2cc(Br)cs2)c2[nH]cnc2n1 [Lomeguatrib],-0.147,-0.753,0,-0.883
O=c1c2ccccc2oc2ccccc12 [Xanthone],-0.512,-1.76,-3.13,-2.71

# An excerpt of these results, with bars between the fields.
Structure (SMILES) | OMR-Perf [1] | Prob-Test [2] | Prob-Naive [3] | Prob-Train [4]
CCC(CC)[C@H](NC(C)=O)[C@@H]1[C@H](O)[C@@H](C(=O)O)C[C@H]1NC(=N)N.O.O.O [Peramivir Trihydrate] | -0.183 | 0.262 | -0.142 | 0.509
CC(Oc1c(Cl)cccc1Cl)C1=NCCN1.Cl (configuration not stated) [Lofexidine HCl] | 0.269 | -0.419 | 0.298 | 0.229
Cl.O=C1c2cccc3c2[C@H](CCC3)CN1[C@@H]1CN2CCC1CC2 [Palonosetron HCl] | 0.254 | -0.678 | 0.271 | 0.261

# (continued)

Structure (SMILES),OMR-Perf [1],Prob-Test [2],Prob-Naive [3],Prob-Train [4]
CCC(=O)O[C@@H](OP(=O)(CCCCc1ccccc1)CC(=O)N1C[C@H](C2CCCCC2)C[C@H]1C(=O)[O-])C(C)C.[Na+] (some centres not stated) [Fosinopril sodium (Monopril)],-0.283,0.32,-0.142,0.2
O=C(O)CC1CC(c2ccccc2)=NO1 (configuration not stated),0.633,-0.44,-0.233,-0.153
O=C1NC(=O)C(=Cc2ccc(-c3ccc(F)cc3)o2)S1 (stereo in doubt),-0.879,-1.42,-0.76,-0.886
[O]=[V]([O][Na])([O][Na])[O][Na] [Sodium orthovanadate],0.223,-0.0134,0.421,-0.0111
O=C(NCC1CN(c2ccc(N3CCOCC3=O)cc2)C(=O)O1)c1ccc(Cl)s1 (configuration not stated) [Rivaroxaban],0.393,0.285,0.584,0.0807
Nc1nc(=O)c2c([nH]1)NCC(CNc1ccc(C(=O)N[C@@H](CCC(=O)[O-])C(=O)[O-])cc1)N2C=O.O.O.O.O.O.[Ca+2] (some centres not stated) [Leucovorin Calcium],0.345,0.0554,0.306,0.249
CN(C)[C@@H](CCOc1cccc2ccccc12)c1ccccc1.Cl [Dapoxetine HCl],-0.47,-1.29,-2.07,-1.9
Cl.O=S(=O)(c1cccc2cnccc12)N1CCCNCC1 [Fasudil (HA-1077) HCl],0.0104,-0.185,-0.043,0.323
CC[C@@]1(O)C(=O)OCc2c1cc1n(c2=O)Cc2cc3c(CN(C)C)c(O)ccc3nc2-1.Cl [Topotecan HCl],0.0509,0.263,0.214,0.112
COc1cc(C(=O)NS(=O)(=O)c2ccccc2C)ccc1Cc1cn(C)c2ccc(NC(=O)OC3CCCC3)cc12 [Zafirlukast],-0.552,-0.0274,0.454,0.153
CN1CCN(c2cccc(Nc3nc4c(-c5ccc(S(C)(=O)=O)cc5)cccn4n3)c2)CC1,-0.0699,-0.412,0.319,-0.685
Cc1cc(CN2CCN(c3c(Br)cnc4[nH]c(-c5ccc(N6CCN(C)CC6)cc5)nc34)CC2)no1,-0.108,0.0214,-0.397,-0.534
CCN1CCN(c2cc(-c3ccc(F)cc3)c3c(n2)CCCCCC3)CC1 [Blonanserin (Lonasen)],-0.768,-1.52,0.0509,-0.607
c1ccc2c(CCNc3ccc(Nc4ccncc4)cc3)c[nH]c2c1,0.363,-0.0436,0.0042,0.219
Cc1c(Cc2ccc3ccccc3n2)c2cc(F)ccc2n1CC(=O)O,-0.563,0.172,0.287,0.102
CC1(C)[C@@H](C(=O)O)N2C(=O)C[C@H]2S1(=O)=O [Sulbactam],-0.355,-0.0276,-0.308,0.361
Oc1cc2c(cc1O)[C@@H]1c3ccc(O)c(O)c3OC[C@]1(O)C2 [Hematoxylin],-0.108,-0.269,-0.311,-0.228
N#Cc1c(O)c2c(-c3ccc(-c4ccccc4O)cc3)csc2[nH]c1=O,-0.638,0.102,-0.283,0.417
CN(C)CCN(Cc1cccs1)c1ccccn1.Cl [Methapyrilene HCl],-0.418,0.286,-0.154,0.28
Cc1ccc(NC(=O)C2(c3ccc4c(c3)OC(F)(F)O4)CC2)nc1-c1cccc(C(=O)O)c1 [VX-809 (Lumacaftor)],-0.31,-0.721,-0.95,-1.28
O.O=c1c(O)c(-c2ccc(O)cc2O)oc2cc(O)cc(O)c12 [Morin Hydrate],0.361,0.0855,-0.141,-0.366
Cc1coc2c1C(=O)C(=O)c1c-2ccc2c(C)cccc12 [Tanshinone I],-0.336,-0.757,-0.0234,-0.176
COC(=O)CCc1ccc(OCC(O)CNC(C)C)cc1.Cl (configuration not stated) [Esmolol HCl],0.647,0.231,0.263,0.655
Cc1cc2c(cc1S(N)(=O)=O)S(=O)(=O)CCC2 [Meticrane],0.454,0.0812,0.153,0.0852
C=CC[N+]1([C@H]2C[C@H]3[C@@H]4CC[C@H]5C[C@H](O)[C@@H](N6CCOCC6)C[C@]5(C)[C@@H]4CC[C@]3(C)[C@@H]2OC(C)=O)CCCC1.[Br-] [Rocuronium Bromide],0.463,0.436,0.357,-0.428
Cc1ccc(C(=O)NCCCCCC(=O)Nc2ccccc2N)cc1,-0.3,-0.148,0.146,0.0911
